Most values lie at the floor of the assay. Slopes are relative: functional sequences can read slightly below zero.
System: Saccharomyces cerevisiae PS128 hsf1 delta, HSF1(1-493) fusion
Experiment: growth estimate (transactivation domain function in HSF1 fusion, heat-shock survival) (a.u. (slope of normalised read count over time)); higher = stronger growth at 37°C, i.e. more transactivation activity
Settings: library: random library

Substance | growth estimate
VVRITGVIIIDAPGGKTSAA | < -0.25
VVRLLEWFPARACYGALLAL | < -0.25
VVRRMAQIGVI | < -0.25
VVSNGRIPSVPASTAYCQSR | < -0.25
VVSQGAWDRQPFICT | < -0.25
VVSRYSDAGLSDAWSVCLSP | < -0.25
VVSSMRVKWRLVNWLKCTSA | < -0.25
VVSVL | < -0.25
VVTAISRSTATILDL | < -0.25
VVTDQHQCRDRFNVFEVVNT | < -0.25
VVTPEGMYGKDRSGWINLMK | < -0.25
VVTSAYAASASC | < -0.25
VVTVGPSYSHVVL | < -0.25
VVVDALG | < -0.25
VVWKMEGRRGR | < -0.25
VVWRTCSHGRVETRRGDVGD | < -0.25
VVWSVRGARALRSAGNLAAR | < -0.25
VWACSVTFSGS | < -0.25
VWAHKRSLFGLQASMAFTRA | < -0.25
VWFADAQSGRRGLIDGVQPV | < -0.25
VWGDRDGYWWDVL | 0.146
VWGFHSRRMFRTIIQRRIRC | < -0.25
VWGLTVQKITSQNIIPAYRP | < -0.25
VWGYRTTAVGPWGQVLIRRC | < -0.25

Substance | growth estimate
VWITDGGAPRLRGICGRTRC | < -0.25
VWNRYDRFPYD | -0.198
VWPCKGEGGYTTPSGCRPGT | < -0.25
VWPRLAGSRLESGQEASYNT | < -0.25
VWSLGHTQ | < -0.25
VWTPKVLTHSLRGTGSPLAE | < -0.25
VWVIRWQIVDRVEHSL | < -0.25
VWVKGAWVPHGG | < -0.25
VWVPSEALLQLYMAGVRLLA | -0.243
VWVTDMGYK | < -0.25
VWVWCEWLI | < -0.25
VWWPETITVNYA | -0.112
VYCAVCLRTPYGAPVPCVFW | < -0.25
VYCLRALQSTDSWTEARIRA | < -0.25
VYDIEP | < -0.25
VYEPKLRTTSIGEGAVGKMV | < -0.25
VYETIPRPQVAIIVFSGCVE | < -0.25
VYFAIKHN | < -0.25
VYFIVDWLS | < -0.25
VYGPERTNHDRIKVDKGNSY | < -0.25
VYGPTRGRPRGSWPNLYTAV | < -0.25
VYH | < -0.25
VYHCMKCRRHRSPR | < -0.25
VYHSASDARSVRGTLQFMIK | < -0.25

Substance | growth estimate
VYISVQVTQTVPRLRILIVV | < -0.25
VYK | < -0.25
VYLESRYSLSLCLSCSRPDR | < -0.25
VYLF | < -0.25
VYPARHGSGGRRTAVPGPLI | < -0.25
VYPTCLH | < -0.25
VYPVTKAGFGLIS | < -0.25
VYRAVHRPRGMRAGQLHICD | < -0.25
VYRRTTRRRPRGH | < -0.25
VYRSSHPTSSDRVEHCTSTL | < -0.25
VYTGARSPELLRWEWLLKQE | -0.241
VYTPGKTDT | < -0.25
VYVELVSAALRNHILGYVLG | < -0.25
VYWT | < -0.25
WAA | < -0.25
WAATVCNNAVLLLPISY | < -0.25
WAGGFLVRAESSRIRSVRPE | < -0.25
WAGNLLSGKPDSWNSVGG | < -0.25
WAGTEPKWGDWVPISESSGK | < -0.25
WAI | < -0.25
WAK | < -0.25
WAPCMVEIAGSAQAEVLVPG | < -0.25
WAPDPEAHRIYPIMRK | < -0.25
WAVGR | < -0.25

Substance | growth estimate
WAVRWCADRPILPILARLVF | < -0.25
WCAVHCGERSW | < -0.25
WCEIVGMELCVLDAGWVPGP | < -0.25
WCGGWSHHKFLIG | < -0.25
WCGRGGQHLGKIKCPREVWA | < -0.25
WCPGQPYSCSGSVRLCLSLA | < -0.25
WCPVIGFSSPQLGTMDLPDT | < -0.25
WCRGHGPQL | < -0.25
WCRRIRGARARGAVEI | < -0.25
WCYSYMQWFSSRNAACLVSA | < -0.25
WDGEYPGTR | < -0.25
WDIRMVLESCSLGR | < -0.25
WDLADPISSQHILHRALAKP | < -0.25
WDMSSAY | < -0.25
WDRAVSAAVRTSTSRRTHLG | < -0.25
WDRSPRATVMTS | < -0.25
WDSFAVSLRD | < -0.25
WDVRRAAGYQEDRTCRSDDA | < -0.25
WEAGRVC | < -0.25
WEKKCRV | < -0.25
WEKRS | -0.246
WENHIIGLRTLSKVRLDRAS | < -0.25
WEQSGDGMPGPTFILSNGSL | < -0.25
WETFIKGSDEGVDDGMSTAY | < -0.25

Substance | growth estimate
WETSIS | < -0.25
WEVQRFAGVVDKGHMCPMSP | < -0.25
WFCP | < -0.25
WFFLRVHYGSLMKDFLGDFW | < -0.25
WFI | < -0.25
WFLGRRTHTLTPTPARAART | < -0.25
WFRMDTFRDNTRAMKERSRL | < -0.25
WFSPSPSPSIGGR | < -0.25
WFSRGQDNELG | < -0.25
WFWEDRSELWNTIHSLTNWI | < -0.25
WGAHSPCSIKGIRVVAQMVR | < -0.25
WGAITA | < -0.25
WGALPSCLVCVWCGKLVESL | < -0.25
WGATGTFSMIRGSLLSIVIC | < -0.25
WGGRFLASGGR | < -0.25
WGLFVPRRPAQLLPRGGDMT | < -0.25
WGNSLCEIPN | < -0.25
WGPHVAGLQRSPRGAMVDCN | < -0.25
WGRIASTRKYRLFDRVRLPL | < -0.25
WGSILRRSY | < -0.25
WGTACTISRRQASPCRI | < -0.25
WGTEFNELTLVRELILLAQV | < -0.25
WGTGCLEGCRVCASHSPRAV | < -0.25
WGVWTFSLCSWQ | < -0.25

Substance | growth estimate
WHAFRWSGGNG | -0.208
WHREYC | < -0.25
WHSTLGDSHTARCLADCRSI | < -0.25
WHVVRRTPLAQFCFIARKLV | < -0.25
WHYV | < -0.25
WIIQLGGSLDANR | < -0.25
WINGLCLRWSQCVAAVRAPP | < -0.25
WIRSLGQ | < -0.25
WIRVLHWSRLPSHRKGQSFA | < -0.25
WITEIFHSGSADQHIPWVSR | < -0.25
WITL | -0.0269
WITVDARRRSLTV | < -0.25
WIWIDAN | < -0.25
WKAGSRHGSLTRGSLFL | < -0.25
WKG | < -0.25
WKGNSLRLRVTCIRQEMRSQ | < -0.25
WKGVVSEPGSQSLPVAGTAE | < -0.25
WKMLPG | < -0.25
WKMLRKLGSLRCINTSDAIH | < -0.25
WKRPRGFYVFETSKSGPRQT | < -0.25
WKRSPERRMVGVRRLKSQVT | < -0.25
WKSGCQRSC | < -0.25
WKTWCCLRQRKSV | < -0.25
WKVAVVLAQGRQPMSRLDGA | < -0.25

A stretch taken from the entries so far, for reference:
Substance | growth estimate
WFSPSPSPSIGGR | < -0.25
WFSRGQDNELG | < -0.25
WFWEDRSELWNTIHSLTNWI | < -0.25
WGAHSPCSIKGIRVVAQMVR | < -0.25
WGAITA | < -0.25
WGALPSCLVCVWCGKLVESL | < -0.25
WGATGTFSMIRGSLLSIVIC | < -0.25
WGGRFLASGGR | < -0.25
WGLFVPRRPAQLLPRGGDMT | < -0.25
WGNSLCEIPN | < -0.25
WGPHVAGLQRSPRGAMVDCN | < -0.25
WGRIASTRKYRLFDRVRLPL | < -0.25
WGSILRRSY | < -0.25
WGTACTISRRQASPCRI | < -0.25
WGTEFNELTLVRELILLAQV | < -0.25
WGTGCLEGCRVCASHSPRAV | < -0.25
WGVWTFSLCSWQ | < -0.25
WHAFRWSGGNG | -0.208
WHREYC | < -0.25
WHSTLGDSHTARCLADCRSI | < -0.25
WHVVRRTPLAQFCFIARKLV | < -0.25
WHYV | < -0.25
WIIQLGGSLDANR | < -0.25
WINGLCLRWSQCVAAVRAPP | < -0.25
WIRSLGQ | < -0.25
WIRVLHWSRLPSHRKGQSFA | < -0.25
WITEIFHSGSADQHIPWVSR | < -0.25
WITL | -0.0269
WITVDARRRSLTV | < -0.25
WIWIDAN | < -0.25
WKAGSRHGSLTRGSLFL | < -0.25
WKG | < -0.25
WKGNSLRLRVTCIRQEMRSQ | < -0.25
WKGVVSEPGSQSLPVAGTAE | < -0.25
WKMLPG | < -0.25
WKMLRKLGSLRCINTSDAIH | < -0.25
WKRPRGFYVFETSKSGPRQT | < -0.25
WKRSPERRMVGVRRLKSQVT | < -0.25
WKSGCQRSC | < -0.25
WKTWCCLRQRKSV | < -0.25
WKVAVVLAQGRQPMSRLDGA | < -0.25

— the supplement of paper PMC5949888
